Measured data: PubChem BioAssay AID652259 (Drosophila RNAi Screening Center, 2013)
Purpose: 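Knock-downs that push a Wingless-driven reporter up or down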 (primary screen). Cells: Drosophila clone 8 imaginal disc epithelial cells. Reagent: long dsRNA against Drosophila genes. Challenge: pathway stimulated by co-transfected Wingless expression plasmid. Read-out: 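Firefly luciferase from a tcf-site Wingless reporter, measured alongside co-transfected Renilla luciferase that tracks transfection; pathway stimulated by a Wingless plasmid; the firefly-to-Renilla ratio is not deposited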. Scale: firefly reporter light: higher = more Wg reporter light, before normalisation; Renilla control light: higher = more transfected or surviving cells. Hit rule: 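Strong candidates differ from their plate mean by at least two out of four per-plate statistical tests; weak candidates meet just one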. Calls: active = candidate regulator (raises or lowers reporter); inactive = not a candidate.
The deposit covers about 22,000 reagents; below is a random part of those with a known target gene and a result. Over the whole deposit, 233 (1.1%) were called active. 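Light values are raw, unnormalised plate reads; the ratio scores behind the reporter calls were not deposited.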 Reagents against one gene are numbered here. Names joined by + are all predicted targets of the reagent. The record does not give: the amount of reagent, the time to read-out, the dose of the treatment.

Gene,reagent,"reporter change call, replicate 1","firefly reporter light, replicate 1","firefly reporter light, replicate 2","Renilla control light, replicate 1","Renilla control light, replicate 2",Outcome
Trhn,1,,20683,,6626,,inactive
Tctp,1,,15798,,3674,,inactive
Panx,1,,1933,6646,653,2580,inactive
HP5,1,,1480,7104,739,2301,inactive
Tmem43,1,,1041,2969,1322,1696,inactive
CG7326,1,,22401,,10248,,inactive
CG1105,1,,2721,,1323,,inactive
CG9400,1,,1549,4626,656,2089,inactive
CG31301,1,,6.84e5,6.95e5,2.74e5,2.62e5,inactive
cold,1,,9884,,4533,,inactive
nau,1,,12275,,9285,,inactive
rad50,1,,3722,,1046,,inactive
CG9072,1,,23100,,11525,,inactive
Upf2,1,,14280,,7641,,inactive
Rbp4,1,,12891,,2405,,inactive
CG42570,1,,2224,,870,,inactive
CG15209,1,,25816,,11360,,inactive
CG34357,1,,12149,,3876,,inactive
CG34357,2,,10619,,2148,,inactive
CG34357,3,,13520,,4390,,inactive
dgrn,1,,5258,,2487,,inactive
CG3323,1,,20752,,7696,,inactive
CG8366,1,,8323,,2786,,inactive
qjt,1,,6074,,2044,,inactive
CG9427,1,,8134,,2981,,inactive
CG4613,1,,10313,,3329,,inactive
mor,1,,23881,,3239,,inactive
sced,1,,8570,,2993,,inactive
CG31007,1,,2851,,1476,,inactive
CG10859,1,,5985,,2032,,inactive
ND-SGDH,1,,6919,,2368,,inactive
Bet1,1,,20064,,4186,,inactive
hts,1,,15629,,7110,,inactive
CG13426,1,,7829,,2400,,inactive

Next part; the last 3 above are carried over.
Gene,reagent,"reporter change call, replicate 1","firefly reporter light, replicate 1","firefly reporter light, replicate 2","Renilla control light, replicate 1","Renilla control light, replicate 2",Outcome
Bet1,1,,20064,,4186,,inactive
hts,1,,15629,,7110,,inactive
CG13426,1,,7829,,2400,,inactive
cer,1,,5204,,2839,,inactive
CG12253,1,,7860,,2065,,inactive
SLO2,1,,2918,7810,213,281,inactive
SLO2,2,,3036,8689,668,3152,inactive
SLO2,3,,2813,9699,563,2523,inactive
SLO2,4,,2952,6007,761,3203,inactive
SLO2,5,,3826,4390,368,776,inactive
CG34393,1,,4912,10944,817,1779,inactive
CG34393,2,,3222,11115,793,2628,inactive
Iml1,1,,11725,,5152,,inactive
CG33642,1,,21916,,8859,,inactive
PIG-K,1,,15878,,9627,,inactive
CG34228,1,,18755,,15680,,inactive
CG30148,1,,4032,,961,,inactive
CG12118,1,,2381,7200,933,1808,inactive
Boh2,1,,3233,6669,1013,2713,inactive
CR10991,1,,18098,,3558,,inactive
Alp1,1,,5378,,2860,,inactive
Mst57Da,1,,26268,,18417,,inactive
CG10993,1,,28006,,16180,,inactive
Traf4,1,,3592,4924,1266,1657,inactive
Traf4,2,,10941,,5612,,inactive
Ir51a,1,,6101,,2954,,inactive
pnut,1,,10080,,2629,,inactive
CG42514,1,,3484,,1040,,inactive
jet,1,,10397,,4705,,inactive
CG4658,1,,1393,5925,822,2117,inactive
dind,1,,1962,5029,1021,992,inactive
CG31875,1,,5.64e5,5.37e5,1.81e5,1.82e5,inactive
CG8851,1,,2101,4816,928,1817,inactive
ste24b,1,,8502,,2119,,inactive
lqf,1,,4242,,1019,,inactive
CG3176 + CR18166 + CG32817,1,,2249,,1120,,inactive
CG3176 + CR18166 + CG32817,2,,2903,,960,,inactive
CG3176 + CR18166 + CG32817,3,,2248,5324,928,1828,inactive
CG16879 (retired record),1,,4490,12435,2243,7024,inactive
CG16879 (retired record),2,,6.11e5,6.56e5,2.10e5,2.18e5,inactive
TotX,1,,6.88e5,7.02e5,3.22e5,3.28e5,inactive
SPH93,1,,3076,8605,1450,3688,inactive
Ets96B,1,,20461,,16985,,inactive
Antp,1,Wg reporter activity raised,13346,,1011,,active
Tob,1,,2070,5632,599,2019,inactive
asRNA:CR43430 + hts,1,,6587,,1565,,inactive
Vha100-2,1,,3147,8982,1137,2208,inactive
Smg6,1,,3424,9101,1850,3202,inactive
Aldh-III,1,,19372,,6328,,inactive
CG14227,1,,4224,,1369,,inactive
CG5510,1,,16413,,15259,,inactive
lectin-21Cb,1,,3969,5937,1328,2461,inactive
CG15269,1,,2461,4026,848,1595,inactive
Gclm,1,,2336,5292,1068,1623,inactive
XNP,1,,3404,5149,1885,1096,inactive
CG15239,1,,11419,,7222,,inactive
CG15036,1,,44482,,6476,,inactive
Dph3,1,,9974,,3659,,inactive
RabX4,1,,6.43e5,6.91e5,3.11e5,2.88e5,inactive
CG16789,1,,9992,,1748,,inactive
CtsL1,1,,15945,,10548,,inactive
CtsL1,2,,10400,,3969,,inactive
